These are yes or no findings as the source states them, for the method shown. In cells and extracts the contact can be indirect. Here binding means that the protein was enriched with, or labelled near, the bait; the list need not be complete. For some assays here: A no says only that the protein was not detected with the bait.
How the values were obtained:
[1] = target: T1, heme–human hemopexin (1:1 heme–HPX complex) (human) (UniProt P02790); assay: affinity purification with mass spectrometry; as a6, isolation from human hepatocyte extract in the presence of RAP (500 nM); the pairs that are blocked; only the target purified
T1 sequence: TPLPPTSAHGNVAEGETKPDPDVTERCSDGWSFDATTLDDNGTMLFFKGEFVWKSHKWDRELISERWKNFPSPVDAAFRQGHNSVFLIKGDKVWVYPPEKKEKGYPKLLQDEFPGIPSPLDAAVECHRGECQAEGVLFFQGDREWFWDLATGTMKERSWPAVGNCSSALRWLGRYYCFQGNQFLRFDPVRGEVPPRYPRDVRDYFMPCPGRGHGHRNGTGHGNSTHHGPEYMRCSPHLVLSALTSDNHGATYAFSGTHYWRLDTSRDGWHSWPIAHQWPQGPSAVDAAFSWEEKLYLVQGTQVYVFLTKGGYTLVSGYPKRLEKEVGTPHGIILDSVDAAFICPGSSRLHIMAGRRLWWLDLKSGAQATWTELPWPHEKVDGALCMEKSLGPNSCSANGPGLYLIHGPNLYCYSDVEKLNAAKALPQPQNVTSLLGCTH

Protein sequences, listed by entry. Tags and fused reporters are not part of them. Residues count along the entry.
UniProt P02787, residues 20-698: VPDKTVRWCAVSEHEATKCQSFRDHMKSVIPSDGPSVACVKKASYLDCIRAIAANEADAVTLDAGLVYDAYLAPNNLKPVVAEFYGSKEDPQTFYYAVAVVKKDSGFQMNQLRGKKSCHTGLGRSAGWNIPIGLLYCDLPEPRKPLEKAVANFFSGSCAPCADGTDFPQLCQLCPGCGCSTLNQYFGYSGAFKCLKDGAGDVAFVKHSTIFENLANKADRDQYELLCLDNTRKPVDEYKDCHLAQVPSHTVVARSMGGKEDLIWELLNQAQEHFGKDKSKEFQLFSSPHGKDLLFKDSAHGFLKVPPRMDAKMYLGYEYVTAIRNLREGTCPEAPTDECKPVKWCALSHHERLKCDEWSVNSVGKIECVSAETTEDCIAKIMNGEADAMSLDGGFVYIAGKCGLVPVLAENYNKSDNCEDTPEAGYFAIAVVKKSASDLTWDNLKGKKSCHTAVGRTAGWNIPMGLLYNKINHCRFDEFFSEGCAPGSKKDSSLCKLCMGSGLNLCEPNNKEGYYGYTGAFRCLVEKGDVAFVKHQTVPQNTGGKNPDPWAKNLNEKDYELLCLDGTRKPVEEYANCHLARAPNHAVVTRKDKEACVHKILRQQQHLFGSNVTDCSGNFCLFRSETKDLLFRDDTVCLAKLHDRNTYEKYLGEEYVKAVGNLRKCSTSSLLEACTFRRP
UniProt Q07954, residues 20-4544: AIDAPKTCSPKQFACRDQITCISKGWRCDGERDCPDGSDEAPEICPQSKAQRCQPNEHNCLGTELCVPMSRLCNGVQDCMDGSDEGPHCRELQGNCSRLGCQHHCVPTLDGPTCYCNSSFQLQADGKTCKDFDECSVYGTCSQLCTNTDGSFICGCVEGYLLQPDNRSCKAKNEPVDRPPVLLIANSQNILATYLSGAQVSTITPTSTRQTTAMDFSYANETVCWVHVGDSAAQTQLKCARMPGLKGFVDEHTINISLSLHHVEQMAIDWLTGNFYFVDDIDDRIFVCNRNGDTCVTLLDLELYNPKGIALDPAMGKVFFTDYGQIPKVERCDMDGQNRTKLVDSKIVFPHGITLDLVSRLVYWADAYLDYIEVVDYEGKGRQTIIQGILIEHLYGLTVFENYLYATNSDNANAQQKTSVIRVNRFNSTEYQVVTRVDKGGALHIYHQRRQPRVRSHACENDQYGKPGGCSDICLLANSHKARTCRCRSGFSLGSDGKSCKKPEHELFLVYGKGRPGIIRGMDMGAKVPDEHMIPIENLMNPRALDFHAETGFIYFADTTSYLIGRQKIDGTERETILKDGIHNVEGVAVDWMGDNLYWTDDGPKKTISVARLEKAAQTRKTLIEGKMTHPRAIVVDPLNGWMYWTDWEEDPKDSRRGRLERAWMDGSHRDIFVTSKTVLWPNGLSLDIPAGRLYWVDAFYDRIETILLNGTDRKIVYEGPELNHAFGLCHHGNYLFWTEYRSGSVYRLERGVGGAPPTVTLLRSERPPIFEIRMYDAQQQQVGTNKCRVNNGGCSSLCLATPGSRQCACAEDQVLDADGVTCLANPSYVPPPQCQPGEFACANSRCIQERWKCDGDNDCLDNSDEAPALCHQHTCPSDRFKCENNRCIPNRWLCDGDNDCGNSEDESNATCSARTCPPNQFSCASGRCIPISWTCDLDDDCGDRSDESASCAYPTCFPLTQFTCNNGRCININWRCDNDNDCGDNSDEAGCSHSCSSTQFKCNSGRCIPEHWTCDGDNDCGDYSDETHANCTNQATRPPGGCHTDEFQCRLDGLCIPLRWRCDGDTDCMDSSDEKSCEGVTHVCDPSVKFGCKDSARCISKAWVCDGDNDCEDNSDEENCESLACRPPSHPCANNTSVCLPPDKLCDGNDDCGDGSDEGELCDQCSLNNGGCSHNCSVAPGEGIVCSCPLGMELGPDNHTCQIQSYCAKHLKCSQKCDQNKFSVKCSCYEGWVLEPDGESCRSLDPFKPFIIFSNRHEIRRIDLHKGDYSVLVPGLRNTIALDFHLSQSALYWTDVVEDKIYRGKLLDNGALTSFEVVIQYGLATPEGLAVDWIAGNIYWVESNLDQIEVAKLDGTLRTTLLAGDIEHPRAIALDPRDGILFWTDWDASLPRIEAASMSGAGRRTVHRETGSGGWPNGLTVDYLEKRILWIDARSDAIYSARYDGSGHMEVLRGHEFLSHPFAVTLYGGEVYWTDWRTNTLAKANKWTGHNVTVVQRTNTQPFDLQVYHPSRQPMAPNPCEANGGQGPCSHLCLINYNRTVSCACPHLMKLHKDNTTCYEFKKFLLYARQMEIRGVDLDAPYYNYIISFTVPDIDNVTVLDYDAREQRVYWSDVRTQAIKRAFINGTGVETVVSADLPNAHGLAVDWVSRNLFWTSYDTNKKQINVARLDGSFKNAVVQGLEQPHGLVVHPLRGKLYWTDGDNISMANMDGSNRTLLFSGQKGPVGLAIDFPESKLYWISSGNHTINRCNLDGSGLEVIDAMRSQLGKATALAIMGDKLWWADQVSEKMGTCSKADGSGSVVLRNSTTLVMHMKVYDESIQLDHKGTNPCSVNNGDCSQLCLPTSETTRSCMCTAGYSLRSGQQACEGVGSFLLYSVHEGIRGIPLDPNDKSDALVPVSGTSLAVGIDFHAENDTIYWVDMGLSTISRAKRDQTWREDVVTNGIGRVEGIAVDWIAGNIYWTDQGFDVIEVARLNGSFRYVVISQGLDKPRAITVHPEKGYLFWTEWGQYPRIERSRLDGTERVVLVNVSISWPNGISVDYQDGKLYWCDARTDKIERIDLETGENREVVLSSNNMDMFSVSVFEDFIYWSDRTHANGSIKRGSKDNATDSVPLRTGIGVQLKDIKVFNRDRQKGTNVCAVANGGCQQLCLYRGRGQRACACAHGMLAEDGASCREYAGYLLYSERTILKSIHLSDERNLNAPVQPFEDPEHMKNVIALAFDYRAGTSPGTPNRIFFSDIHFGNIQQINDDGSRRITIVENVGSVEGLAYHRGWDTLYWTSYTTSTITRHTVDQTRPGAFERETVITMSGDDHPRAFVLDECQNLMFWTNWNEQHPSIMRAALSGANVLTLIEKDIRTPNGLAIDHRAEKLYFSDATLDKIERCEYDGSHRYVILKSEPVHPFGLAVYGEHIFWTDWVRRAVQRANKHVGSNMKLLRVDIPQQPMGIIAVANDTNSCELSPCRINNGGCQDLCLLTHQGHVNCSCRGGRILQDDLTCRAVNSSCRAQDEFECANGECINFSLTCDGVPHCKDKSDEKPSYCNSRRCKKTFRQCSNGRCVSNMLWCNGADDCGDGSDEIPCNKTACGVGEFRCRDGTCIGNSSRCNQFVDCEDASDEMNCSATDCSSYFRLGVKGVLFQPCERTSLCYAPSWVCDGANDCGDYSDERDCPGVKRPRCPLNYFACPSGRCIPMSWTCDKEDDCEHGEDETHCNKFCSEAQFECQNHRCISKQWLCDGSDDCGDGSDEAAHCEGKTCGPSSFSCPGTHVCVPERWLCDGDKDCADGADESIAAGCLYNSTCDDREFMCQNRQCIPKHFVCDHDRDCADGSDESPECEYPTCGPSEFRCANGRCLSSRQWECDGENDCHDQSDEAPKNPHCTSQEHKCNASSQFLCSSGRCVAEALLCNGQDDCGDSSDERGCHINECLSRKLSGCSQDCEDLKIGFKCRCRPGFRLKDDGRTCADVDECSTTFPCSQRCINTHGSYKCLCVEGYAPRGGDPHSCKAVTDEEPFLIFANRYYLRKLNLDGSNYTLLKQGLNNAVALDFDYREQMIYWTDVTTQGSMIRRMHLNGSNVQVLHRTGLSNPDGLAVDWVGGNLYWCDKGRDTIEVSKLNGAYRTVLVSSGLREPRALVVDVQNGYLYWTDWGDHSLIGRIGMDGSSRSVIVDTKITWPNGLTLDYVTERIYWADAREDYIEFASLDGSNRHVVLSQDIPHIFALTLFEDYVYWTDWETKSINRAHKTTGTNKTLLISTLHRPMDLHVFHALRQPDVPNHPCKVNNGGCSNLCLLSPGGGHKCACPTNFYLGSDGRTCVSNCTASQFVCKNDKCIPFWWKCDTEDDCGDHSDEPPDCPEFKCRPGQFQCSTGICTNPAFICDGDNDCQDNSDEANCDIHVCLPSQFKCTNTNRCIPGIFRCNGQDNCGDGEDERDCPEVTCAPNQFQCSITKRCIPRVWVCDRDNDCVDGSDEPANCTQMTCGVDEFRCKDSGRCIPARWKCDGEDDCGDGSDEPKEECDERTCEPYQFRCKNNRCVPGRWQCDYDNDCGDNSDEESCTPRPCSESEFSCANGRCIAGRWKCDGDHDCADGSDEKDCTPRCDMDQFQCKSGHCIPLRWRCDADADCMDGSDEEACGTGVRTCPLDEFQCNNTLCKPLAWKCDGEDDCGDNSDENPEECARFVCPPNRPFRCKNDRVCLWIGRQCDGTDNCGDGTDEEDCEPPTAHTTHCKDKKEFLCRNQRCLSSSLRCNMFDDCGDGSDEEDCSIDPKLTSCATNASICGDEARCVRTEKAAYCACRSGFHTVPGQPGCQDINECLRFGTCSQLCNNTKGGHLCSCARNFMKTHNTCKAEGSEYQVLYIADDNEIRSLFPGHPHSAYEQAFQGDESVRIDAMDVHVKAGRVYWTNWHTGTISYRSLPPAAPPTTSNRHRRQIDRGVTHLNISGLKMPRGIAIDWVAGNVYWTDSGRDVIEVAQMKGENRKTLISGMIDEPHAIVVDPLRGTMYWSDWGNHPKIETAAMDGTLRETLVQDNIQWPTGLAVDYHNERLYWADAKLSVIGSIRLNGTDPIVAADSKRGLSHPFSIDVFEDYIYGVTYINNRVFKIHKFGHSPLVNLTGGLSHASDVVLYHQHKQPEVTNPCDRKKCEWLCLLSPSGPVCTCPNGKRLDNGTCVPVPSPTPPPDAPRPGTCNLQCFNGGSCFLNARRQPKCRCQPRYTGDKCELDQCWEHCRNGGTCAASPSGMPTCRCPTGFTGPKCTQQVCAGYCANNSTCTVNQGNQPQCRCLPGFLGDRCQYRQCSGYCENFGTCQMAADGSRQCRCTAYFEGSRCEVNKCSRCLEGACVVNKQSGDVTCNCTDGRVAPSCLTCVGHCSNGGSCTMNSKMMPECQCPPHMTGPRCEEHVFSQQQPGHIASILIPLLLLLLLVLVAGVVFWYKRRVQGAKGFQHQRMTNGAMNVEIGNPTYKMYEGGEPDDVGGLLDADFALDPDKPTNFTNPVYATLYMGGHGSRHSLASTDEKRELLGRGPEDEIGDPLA

[2] = target: holo-human transferrin (human) (UniProt P02787); assay: affinity purification with mass spectrometry; proto-heme–human HPX, mesoheme–rabbit HPX or holo-human Tf Affi-Gel 15; detergent extracts of primary human hepatocytes; proteins found on underivatized, mouse IgG or ovalbumin resins filtered out; only the target purified
[3] = target: T2, mesoheme–rabbit hemopexin (1:1 heme–HPX complex) (rabbit) (UniProt P20058); assay: as above
T2 sequence: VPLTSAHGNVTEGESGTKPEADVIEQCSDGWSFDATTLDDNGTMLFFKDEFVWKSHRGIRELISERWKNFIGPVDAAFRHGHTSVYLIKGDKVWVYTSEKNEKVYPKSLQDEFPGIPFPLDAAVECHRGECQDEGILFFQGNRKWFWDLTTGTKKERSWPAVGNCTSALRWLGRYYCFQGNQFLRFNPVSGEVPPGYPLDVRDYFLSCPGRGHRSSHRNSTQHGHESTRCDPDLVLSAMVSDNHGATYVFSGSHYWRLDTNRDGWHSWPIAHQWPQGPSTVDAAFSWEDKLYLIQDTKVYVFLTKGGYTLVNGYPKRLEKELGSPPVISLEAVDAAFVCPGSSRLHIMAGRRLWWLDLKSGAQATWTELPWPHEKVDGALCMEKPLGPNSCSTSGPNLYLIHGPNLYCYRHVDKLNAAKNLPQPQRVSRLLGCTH

[4] = target: T1, heme–human hemopexin (1:1 heme–HPX complex) (human); assay: as above
[5] = target: T2, mesoheme–rabbit hemopexin (1:1 heme–HPX complex) (rabbit); assay: affinity purification with mass spectrometry; heme–HPX or holo-human Tf Affi-Gel 15 against ovalbumin Affi-Gel 15; HepG2 whole-cell extracts (0.5% Triton X-100, HEPES pH 7.4, 150 mM NaCl); 2-fold or greater over the negative control counted as specifically bound; only the target purified

With “Low-density lipoprotein receptor 1 (low-density lipoprotein-related protein 1) (from UniProt Q07954 20-4544)” the binding [1] was “binds”, the binding [2] was “no binding” and the binding [3] was “binds”. The binding [4] was “binds” and the binding [5] was “binds”.
